One molecule from PMC12216596 can be followed below.

The chains behind the UniProt entries cited, without tags or fusion partners.
UniProt Q3UIR3: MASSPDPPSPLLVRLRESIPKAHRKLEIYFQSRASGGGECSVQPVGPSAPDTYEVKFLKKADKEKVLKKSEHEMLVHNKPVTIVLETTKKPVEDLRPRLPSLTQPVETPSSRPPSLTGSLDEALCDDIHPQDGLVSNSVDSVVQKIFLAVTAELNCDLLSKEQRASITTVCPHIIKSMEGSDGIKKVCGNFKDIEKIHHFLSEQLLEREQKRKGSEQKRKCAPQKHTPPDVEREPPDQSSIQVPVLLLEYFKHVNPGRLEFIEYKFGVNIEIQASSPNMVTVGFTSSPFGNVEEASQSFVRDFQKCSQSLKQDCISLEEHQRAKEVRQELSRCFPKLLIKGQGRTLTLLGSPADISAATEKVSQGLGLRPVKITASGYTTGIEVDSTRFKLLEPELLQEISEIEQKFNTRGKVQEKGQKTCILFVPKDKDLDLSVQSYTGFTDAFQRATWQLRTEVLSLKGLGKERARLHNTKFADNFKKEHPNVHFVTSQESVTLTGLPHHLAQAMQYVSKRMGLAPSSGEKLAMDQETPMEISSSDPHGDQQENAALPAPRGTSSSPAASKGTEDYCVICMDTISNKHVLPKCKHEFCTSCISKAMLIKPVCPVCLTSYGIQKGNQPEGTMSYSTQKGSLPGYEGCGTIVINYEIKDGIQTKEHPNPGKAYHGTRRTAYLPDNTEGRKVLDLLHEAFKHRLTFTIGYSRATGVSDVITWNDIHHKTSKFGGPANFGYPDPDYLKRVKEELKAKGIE

This assay addresses Endogenous DTX3L of mouse peritoneal macrophages (mouse (endogenous in primary peritoneal macrophages)) (UniProt Q3UIR3). As to the kind of experiment: co-IP.

Results are given in words; binding and its absence hold for the method and conditions named. Binding seen in cells or lysates may run through a third protein. Some binding calls cover weakened binding; strength is not graded here.

B1: Endogenous FPN1 (ferroportin) of mouse peritoneal macrophages (protein, UniProt Q9JHI9 1-570)
chain: MTKARDQTHQEGCCGSLANYLTSAKFLLYLGHSLSTWGDRMWHFAVSVFLVELYGNSLLLTAVYGLVVAGSVLVLGAIIGDWVDKNARLKVAQTSLVVQNVSVILCGIILMMVFLHKNELLTMYHGWVLTVCYILIITIANIANLASTATAITIQRDWIVVVAGENRSRLADMNATIRRIDQLTNILAPMAVGQIMTFGSPVIGCGFISGWNLVSMCVEYFLLWKVYQKTPALAVKAALKVEESELKQLTSPKDTEPKPLEGTHLMGEKDSNIRELECEQEPTCASQMAEPFRTFRDGWVSYYNQPVFLAGMGLAFLYMTVLGFDCITTGYAYTQGLSGSILSILMGASAITGIMGTVAFTWLRRKCGLVRTGLFSGLAQLSCLILCVISVFMPGSPLDLSVSPFEDIRSRFVNVEPVSPTTKIPETVFTTEMHMSNMSNVHEMSTKPIPIVSVSLLFAGVIAARIGLWSFDLTVTQLLQENVIESERGIINGVQNSMNYLLDLLHFIMVILAPNPEAFGLLVLISVSFVAMGHLMYFRFAQKTLGNQIFVCGPDEKEVTDENQPNTSVV
As to B1, the binding entry is on record as “binds”.
